# Library screen at single concentrations

Mtb glucose medium: 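Whole-cell growth test on Mycobacterium tuberculosis, read after 3 days in glucose-containing 7H9 medium; the read-out is not stated. Compounds at 50 µM. The record gives no direction; compounds that gave an IC50 in retests scored well above the rest, so higher reads as more growth inhibition. About 69,000 compounds were tested under these conditions; 1.1% (about 760) showed 50% or more at least once.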
Mtb cholesterol medium: 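Phenotypic screen: M. tuberculosis growth, cholesterol and DPPC medium, 4 days; the read-out is not stated. Compounds at 50 µM. The record gives no direction; compounds that gave an IC50 in retests scored well above the rest, so higher reads as more growth inhibition. About 69,000 compounds were tested under these conditions; 0.54% (about 370) showed 50% or more at least once.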

Values are the deposited “Percent Effect”, in %. How 0% and 100% were set is not recorded. Most values in the screen are low, and negative values occur. The compounds are a random part of those screened. Two or more numbers in one place are separate tests of the same structure; such repeats can differ widely.

Result for Cc1ccc(-c2ccnc(NC(C)c3n[nH]c(=O)[nH]3)n2)c(C)n1 (stereo unspecified) was Mtb glucose medium: 11.44%; Mtb cholesterol medium: -3.346% and 13.45%. Result for O=C(O)C(F)(F)F.O=C(O)C(F)(F)F.O=C(O)C(F)(F)F.c1ccc(CN2CCC3(CC2)CCN(Cc2cccs2)C3)nc1 was Mtb glucose medium: -3.497%; Mtb cholesterol medium: 10.85%. Cc1ccc(CN2CCC(c3cnccn3)CC2)s1 read Mtb glucose medium: 15.94%; Mtb cholesterol medium: 2.936% and 3.59%. O=C(c1cccn1Cc1cccs1)N1CCC(C(=O)N2CCCC2)CC1 gave Mtb glucose medium: 10.99%; Mtb cholesterol medium: -0.6158%. With Cc1cc2n(n1)CC(CNC1CCN(C(=O)c3ccco3)CC1)CN2 (stereo unspecified) the screen gave Mtb glucose medium: -3.074% and 2.664%; Mtb cholesterol medium: -19.46%. Result for CC(Cn1ccnc1)NC(=O)N(C)Cc1ccc2c(c1)OCCO2 (stereo unspecified) was Mtb glucose medium: 7.786%; Mtb cholesterol medium: -27.25%. Cc1ccccc1C1(C(=O)NCCN2CCOCC2)CCOCC1 gave Mtb glucose medium: -9.799%; Mtb cholesterol medium: 3.812%. O=C(c1ncn2c1CNS(=O)(=O)c1ccccc1-2)N1CC=CC1 gave Mtb glucose medium: -4.364% and -2.838%; Mtb cholesterol medium: -18.38%.

With CN(C)CC1(O)CCN(C(=O)Cc2ccc3c(c2)CCCC3)C1 (stereo unspecified) the screen gave Mtb glucose medium: -20.23%; Mtb cholesterol medium: -6.681% and 0.2217%. For COCC(C)NC(=O)NCCCc1cc(N)n(-c2ccccc2)n1 (stereo unspecified) the result was Mtb glucose medium: -11.55%; Mtb cholesterol medium: -4.497%. Result for O=C(c1ccc[nH]1)N1CCN(C(c2ccccc2)C(F)(F)F)CC1 (stereo unspecified) was Mtb glucose medium: -11.21% and 3.142%; Mtb cholesterol medium: 2.405%. Cc1csc(C2CCCN(C(=O)c3cccc4c3OCO4)C2)n1 (stereo unspecified) read Mtb glucose medium: -11.92%; Mtb cholesterol medium: -15.92%. CN(Cc1cnn(C)c1)C(=O)c1ccc(=O)n(Cc2ccccc2)n1 read Mtb glucose medium: 11.47%; Mtb cholesterol medium: 5.203%. Result for CC(C)(C)c1cnc(CN2CCC(CO)CC2)o1 was Mtb glucose medium: 3.749%; Mtb cholesterol medium: 6.148%. COCC1CN(C(=O)C2=CCCCC2)Cc2cnn(CC3CC3)c21 (stereo unspecified) read Mtb glucose medium: 26.01%; Mtb cholesterol medium: 16.25%. CCc1nsc(N2CCc3sccc3C2)n1 gave Mtb glucose medium: 10.19% and -0.9136%; Mtb cholesterol medium: 25.55%.

With CC(=O)NCCOc1cccc(Br)c1 the screen gave Mtb glucose medium: 0.7747%; Mtb cholesterol medium: 1.285%. CCc1nc(NC2CCCN(C(=O)C3CC3)C2)c2cnn(C)c2n1 (stereo unspecified) read Mtb glucose medium: 1.012%; Mtb cholesterol medium: -6.872%. Result for [H][C@]12CCNC[C@@]1([H])OCCN(Cc1csc(C)n1)C2 was Mtb glucose medium: -21.65%; Mtb cholesterol medium: -22.01%. For CC(NC(=O)NCCCN(C)S(C)(=O)=O)c1ccc(F)cc1 (stereo unspecified) the result was Mtb glucose medium: 20.56%; Mtb cholesterol medium: -42.07%. With Cc1cccc(OC2CN(C(=O)C3CC(=O)N(C(C)(C)C)C3)C2)c1 (stereo unspecified) the screen gave Mtb glucose medium: 27.99%; Mtb cholesterol medium: 10.38%. With O=C(Nc1ccccc1)C1CN(C(=O)c2cccs2)CC12CCOCC2 (stereo unspecified) the screen gave Mtb glucose medium: 5.7% and -7.381%; Mtb cholesterol medium: 10.51%. CCN1CCN(c2ccc(C(=O)NCCOC)cc2F)CC1 read Mtb glucose medium: -5.916% and -16.27%; Mtb cholesterol medium: -7.409%. With Cc1cccnc1CNC(=O)NC(C)Cc1c(C)nn(C)c1C (stereo unspecified) the screen gave Mtb glucose medium: 5.728% and -0.7395%; Mtb cholesterol medium: 10.42%.

For CCNC(=O)C1CCN(Cc2csc(-c3ccc(C)o3)n2)CC1 the result was Mtb glucose medium: -12.44%; Mtb cholesterol medium: -3.932%. CCCc1cc(=O)[nH]c2nnc(SCC(=O)NCCc3ccccc3)n12 read Mtb glucose medium: -16.02%; Mtb cholesterol medium: -25.64%. COc1cccc2c1OCC(Cc1cc(C(N)=O)ccn1)C2 (stereo unspecified) read Mtb glucose medium: -24.92%; Mtb cholesterol medium: -24.04%. O=C(O)C(F)(F)F.[H][C@@]12CCCO[C@]1([H])[C@@H](NC(=O)C1CC1)CN2Cc1ccsc1 gave Mtb glucose medium: 6.788%; Mtb cholesterol medium: -2.122% and -1.723%. O=C1CCCN1Cc1ncn2c1CN(C(=O)Cc1cccs1)CCC2 gave Mtb glucose medium: 4.095%; Mtb cholesterol medium: 4.24%. Cc1nn(C)c(C)c1CC(=O)N1CCCC(CNS(C)(=O)=O)C1 (stereo unspecified) read Mtb glucose medium: -22.77%; Mtb cholesterol medium: -7.359%. Cc1cccc(C(=O)Nc2cccc3c2CCCC3)n1 read Mtb glucose medium: 6.106%; Mtb cholesterol medium: -10.68%. Cc1ncc(C(=O)N2CC(C(=O)N3CCOCC3)C2)c(C)n1 read Mtb glucose medium: -17.01%; Mtb cholesterol medium: -10.84% and -2.151%.

Result for COc1ccc(Cn2cc(C(=O)N(C)CCN(C)C)nn2)cc1 was Mtb glucose medium: -1.669% and 7.172%; Mtb cholesterol medium: 4.446%. For O=C(O)C(F)(F)F.O=c1ccc2c([nH]1)CCC(NCc1ccc3c(c1)OCO3)C2 (stereo unspecified) the result was Mtb glucose medium: -15.47%; Mtb cholesterol medium: -3.126%. Result for CC(NC(=O)C1=NN(C)C(=O)CC1)c1ccc(Cl)cc1Cl (stereo unspecified) was Mtb glucose medium: 33.04% and 13.17%; Mtb cholesterol medium: 11.71%. CC(C)(C)c1ncc(CNCC2CCCN2c2cccnn2)s1 (stereo unspecified) read Mtb glucose medium: 5.442%; Mtb cholesterol medium: 16.16%. With CNC(=O)Cc1ccc(NC(=O)NCc2nc(C)sc2C)cc1 the screen gave Mtb glucose medium: -13.11% and -3.46%; Mtb cholesterol medium: -16.89%. CCn1cc(N2Cc3nc(N4CCOCC4)ncc3C2=O)cn1 read Mtb glucose medium: 3.568%; Mtb cholesterol medium: 10.47%. Result for CCOC(C)c1nc(CN2CCC(NC(C)C)CC2)cs1 (stereo unspecified) was Mtb glucose medium: -9.202%; Mtb cholesterol medium: -3.323% and -2.668%.

Once more, the final 4:

structure	Mtb glucose medium	Mtb cholesterol medium
CC(C)(C)c1ncc(CNCC2CCCN2c2cccnn2)s1 (stereo unspecified)	5.442	16.16
CNC(=O)Cc1ccc(NC(=O)NCc2nc(C)sc2C)cc1	-13.11 and -3.46	-16.89
CCn1cc(N2Cc3nc(N4CCOCC4)ncc3C2=O)cn1	3.568	10.47
CCOC(C)c1nc(CN2CCC(NC(C)C)CC2)cs1 (stereo unspecified)	-9.202	-3.323 and -2.668

Source: ChEMBL document CHEMBL3988442, “University of Dundee, Small-Polar-MMV Screening Library” (2021).